This note sets out measurements from PubChem BioAssay AID504397 (Broad Institute, 2011).

Only a part is listed here, and it is no random draw. Potency and affinity values are given separately. The source made the active and inactive calls. The rule behind the calls is not given here.

The assay can be described thus: toxicity toward cultured mammalian cells – cell-based, plate reader, cherry-pick samples, cytotoxicity control, dose response (AID 504397). To be noted: plate reader viability; at 35 µM (top of the series).

For the molecule `Fc1ccc(C(c2ccc(F)cc2)N2CCN(C/C=C/c3ccccc3)CC2)cc1`, the activity change, negative = toxicity is inactive: 10%.
